{
  "source": "PubChem BioAssay AID493014",
  "about": "(National Center for Advancing Translational Sciences (NCATS), 2011)",
  "note": "About 170 (0.05%) of roughly 340,000 compounds were called active. Inconclusive results, whose numbers are uncertain, are shown with a selection of clear calls. Calls follow the shape of the dose curve; as a rule, active = well fitted inhibition curve with a large enough effect in the signal ratio, with a control signal flat (not every such curve was filed as active); inconclusive = small, poorly fitted or top-dose-only effect, or effect the other way, or a change in a side signal; inactive = flat fitted curve, though single readings scatter; the % refers to the signal ratio. Where the call is inconclusive, the potency comes from a doubtful curve fit. Potency is read from the fitted curve at half-maximal effect.",
  "data": [
    {"assay": "qHTS Assay to Find Inhibitors of Chronic Active B-Cell Receptor Signaling;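 as to activity change, negative = inhibition: plate controls were basal doxycycline-induced cells for no effect and cells given 10 µM MG132 for full effect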", "details": "ABC-DLBCL IkBa-CBG/CBR reporter, luminescence ratio (green luciferase fused to IkBa over red control in TMD8 lymphoma cells), 4 h; activity change, negative = inhibition: at 46.1 µM (top of the series)", "in_short": "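Compounds up to 46 uM were incubated four hours with TMD8 cells whose green CBG68 luciferase is fused to IkappaBalpha; red CBR luminescence normalised the signal, and concentration-effect curves were fitted to fusion, red and ratio data.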", "values": [
      {"molecule": "Cc1nn(CC2CC2)c(=O)n1-c1ccc(Cl)cc1", "activity change, negative = inhibition": "inconclusive: 0.274%"},
      {"molecule": "Cc1ccc(NC2=C(N3CCCCC3)C(=O)c3ccccc3C2=O)cc1", "activity change, negative = inhibition": "inconclusive: -14.4%"},
      {"molecule": "Cc1cccc(NC(=O)CSCC(=O)Nc2sccc2C#N)c1", "activity change, negative = inhibition": "inactive"},
      {"molecule": "CCOc1ccc(OCC)c(NC(=O)CCS(=O)(=O)c2ccc(Br)s2)c1", "activity change, negative = inhibition": "inconclusive: -20.4%"},
      {"molecule": "CCN(CC)CCN1C(=O)C(=O)/C(=C(/O)c2ccc(OC)cc2)C1c1cccs1", "note": "(stereo unspecified)", "activity change, negative = inhibition": "inconclusive: -10.2%"},
      {"molecule": "Cc1nc(NNC(=O)c2ccccc2)cc(-c2ccccc2)n1", "activity change, negative = inhibition": "inconclusive: -1.27%"},
      {"molecule": "Cc1ccc(CN2C(=O)CCC2C(=O)NCCCN2CCCCC2C)cc1", "note": "(stereo unspecified)", "activity change, negative = inhibition": "inconclusive: -1.51%"},
      {"molecule": "Cc1c(Cl)cccc1Nc1nc(N)nc(CSC(=S)N2CCOCC2)n1", "Potency": "inconclusive: 3.98 µM [falling, full curve, poor fit]"},
      {"molecule": "CC1=C(C(=O)N2CCOCC2)C(c2ccc(Br)cc2)NC(=S)N1c1ccccc1", "note": "(stereo unspecified)", "activity change, negative = inhibition": "inactive"},
      {"molecule": "COc1ccc(SCC(=O)Nc2ccc(N3CCN(C)CC3)c(F)c2)cc1", "activity change, negative = inhibition": "inactive"},
      {"molecule": "O=C(NC(=O)c1cccc(F)c1)OC[C@@H]1CCCN2CCCC[C@H]12", "activity change, negative = inhibition": "inconclusive: 9.75%"},
      {"molecule": "O=C(Cc1coc(-c2ccc(F)cc2)n1)Nc1ccccc1", "activity change, negative = inhibition": "inconclusive: -19.9%"},
      {"molecule": "CN(C)CCn1c(NCc2ccc3c(c2)OCO3)nc2ccccc21", "Potency": "inconclusive: 31.6 µM [falling, single point]"},
      {"molecule": "COc1ccc(N(CC(=O)NC2CCCCC2)C(=O)c2ccc(C)s2)c(OC)c1", "activity change, negative = inhibition": "inactive"},
      {"molecule": "COc1ccc(C(C)=O)cc1CSc1nc2nc(C)cc(C)n2n1", "activity change, negative = inhibition": "inconclusive: 4.58%"},
      {"molecule": "COc1ccc(CC(=O)Nc2cccc(SC)c2)cc1OC", "activity change, negative = inhibition": "inconclusive: 1.37%"},
      {"molecule": "Clc1nc(-c2ccccc2)c2ccccc2n1", "activity change, negative = inhibition": "inactive"},
      {"molecule": "CCOC(=O)c1c(Nc2ccccc2OCCOC)n[nH]c1C", "activity change, negative = inhibition": "inactive"},
      {"molecule": "CN1CCC(N(C)C(=O)/C=C/c2cn(-c3ccccc3)nc2-c2cccs2)CC1", "Potency": "inconclusive: 35.5 µM [falling, single point]"},
      {"molecule": "CSc1sc(C(=O)NCC2CC2)c(-c2cccs2)c1C#N", "activity change, negative = inhibition": "inconclusive: 3.01%"},
      {"molecule": "N=c1c2c3c(sc2ncn1CCCN1CCOCC1)CCCCC3", "activity change, negative = inhibition": "inconclusive: 11.2%"},
      {"molecule": "O=C(NNC(=O)c1ccccc1OCc1ccc(F)cc1)c1ccccc1O", "Potency": "inconclusive: 31.6 µM [rising, single point]"},
      {"molecule": "CC(C)C[C@H](NC(=O)c1[nH]cnc1C(=O)N[C@@H](Cc1ccccc1)C(=O)OC(C)(C)C)C(=O)OC(C)(C)C", "activity change, negative = inhibition": "inactive"},
      {"molecule": "Cc1ccc(NC(=O)c2ccc(NCc3ccco3)c([N+](=O)[O-])c2)cc1Cl", "activity change, negative = inhibition": "inconclusive: -1.76%"},
      {"molecule": "O=C(COC(=O)c1cc([N+](=O)[O-])ccc1N1CCOCC1)NC1CCCCC1", "activity change, negative = inhibition": "inconclusive: -1.84%"},
      {"molecule": "Nc1ncnc2c1ncn2[C@@H]1O[C@H](CO)[C@@H](O)[C@H]1O", "activity change, negative = inhibition": "inconclusive: 5.08%"},
      {"molecule": "Cc1cccc(C2c3[nH]c4ccccc4c3CCN2C(=O)c2cc(CC(C)C)nc(C)n2)n1", "note": "(stereo unspecified)", "Potency": "inconclusive: 15.8 µM [falling, single point]"},
      {"molecule": "CCCCc1ccc(NC(=O)N[C@@H](C)C(=O)O)cc1", "activity change, negative = inhibition": "inactive"},
      {"molecule": "Cc1ccc(NC(=O)c2ccc(Cl)cc2Cl)cc1O", "activity change, negative = inhibition": "inconclusive: 9.15%"},
      {"molecule": "O=C(/C=C/c1ccco1)NC(=S)Nc1ccccc1", "activity change, negative = inhibition": "inactive"},
      {"molecule": "O=c1[nH]c(-c2ccccc2)c(-c2ccccc2)o1", "activity change, negative = inhibition": "inconclusive: -0.777%"},
      {"molecule": "CCOc1ccc(NC(=O)Nc2nc(SCC)ns2)cc1", "Potency": "inconclusive: 8.91 µM [falling, partial curve, poor fit]"},
      {"molecule": "COc1ccc(OC)c(CNC(=O)CN2N=C(c3ccc(Cl)cc3)CCC2=O)c1", "Potency": "inconclusive: 11.2 µM [falling, single point]"},
      {"molecule": "Cc1cc(Cl)ccc1NC(=S)NCc1ccc(F)cc1", "activity change, negative = inhibition": "inconclusive: 11.5%"},
      {"molecule": "CCOc1c(Cl)cnn(-c2ccc(C)cc2)c1=O", "activity change, negative = inhibition": "inactive"},
      {"molecule": "O=C(NCCc1ccc(Cl)cc1)C(=O)NCC(c1cccs1)S(=O)(=O)c1cccs1", "note": "(stereo unspecified)", "Potency": "inconclusive: 35.5 µM [falling, single point]"},
      {"molecule": "CCc1ccc(C(=O)COc2ccc(NC(C)=O)cc2)cc1", "activity change, negative = inhibition": "inconclusive: -26.7%"},
      {"molecule": "CCC(C)NC(=O)C1CCCN(S(=O)(=O)c2ccc3c(c2)CC(C)N3C(C)=O)C1", "note": "(stereo unspecified)", "activity change, negative = inhibition": "inactive"},
      {"molecule": "CCOc1ccc(C(CC(=O)O)NC(=O)C(c2ccccc2)c2ccccc2)cc1OC", "note": "(stereo unspecified)", "activity change, negative = inhibition": "inconclusive: 5.78%"},
      {"molecule": "CC(C)Oc1ccc(CNC(=O)c2ccc3c(c2)N(C)CCS3)cc1", "activity change, negative = inhibition": "inconclusive: 3.28%"},
      {"molecule": "S=C(NCc1ccccc1)Nc1ccc(Oc2ccccc2)cc1", "Potency": "inconclusive: 35.5 µM [falling, single point]"}
    ]}
  ]
}
